These are yes or no findings as the source states them, for the method shown. For some of these results: A result given as binding can be weak or reduced; the word gives no strength.
Legend:
Experiment in all cases: two-hybrid; Gal4 AD and BD fusions (pGADT7, pGBKT7); mating of Y187 and Y2HGold strains; selection on SD-Trp/Leu/AbA (200 ng/ml Aureobasidin A; moderate stringency) or SD-Trp/Leu/Ade/His/AbA (high stringency)
ZMYM3 (mouse) = target: T1, ZMYM3 (mouse) (UniProt Q9JLM4)
T1 sequence: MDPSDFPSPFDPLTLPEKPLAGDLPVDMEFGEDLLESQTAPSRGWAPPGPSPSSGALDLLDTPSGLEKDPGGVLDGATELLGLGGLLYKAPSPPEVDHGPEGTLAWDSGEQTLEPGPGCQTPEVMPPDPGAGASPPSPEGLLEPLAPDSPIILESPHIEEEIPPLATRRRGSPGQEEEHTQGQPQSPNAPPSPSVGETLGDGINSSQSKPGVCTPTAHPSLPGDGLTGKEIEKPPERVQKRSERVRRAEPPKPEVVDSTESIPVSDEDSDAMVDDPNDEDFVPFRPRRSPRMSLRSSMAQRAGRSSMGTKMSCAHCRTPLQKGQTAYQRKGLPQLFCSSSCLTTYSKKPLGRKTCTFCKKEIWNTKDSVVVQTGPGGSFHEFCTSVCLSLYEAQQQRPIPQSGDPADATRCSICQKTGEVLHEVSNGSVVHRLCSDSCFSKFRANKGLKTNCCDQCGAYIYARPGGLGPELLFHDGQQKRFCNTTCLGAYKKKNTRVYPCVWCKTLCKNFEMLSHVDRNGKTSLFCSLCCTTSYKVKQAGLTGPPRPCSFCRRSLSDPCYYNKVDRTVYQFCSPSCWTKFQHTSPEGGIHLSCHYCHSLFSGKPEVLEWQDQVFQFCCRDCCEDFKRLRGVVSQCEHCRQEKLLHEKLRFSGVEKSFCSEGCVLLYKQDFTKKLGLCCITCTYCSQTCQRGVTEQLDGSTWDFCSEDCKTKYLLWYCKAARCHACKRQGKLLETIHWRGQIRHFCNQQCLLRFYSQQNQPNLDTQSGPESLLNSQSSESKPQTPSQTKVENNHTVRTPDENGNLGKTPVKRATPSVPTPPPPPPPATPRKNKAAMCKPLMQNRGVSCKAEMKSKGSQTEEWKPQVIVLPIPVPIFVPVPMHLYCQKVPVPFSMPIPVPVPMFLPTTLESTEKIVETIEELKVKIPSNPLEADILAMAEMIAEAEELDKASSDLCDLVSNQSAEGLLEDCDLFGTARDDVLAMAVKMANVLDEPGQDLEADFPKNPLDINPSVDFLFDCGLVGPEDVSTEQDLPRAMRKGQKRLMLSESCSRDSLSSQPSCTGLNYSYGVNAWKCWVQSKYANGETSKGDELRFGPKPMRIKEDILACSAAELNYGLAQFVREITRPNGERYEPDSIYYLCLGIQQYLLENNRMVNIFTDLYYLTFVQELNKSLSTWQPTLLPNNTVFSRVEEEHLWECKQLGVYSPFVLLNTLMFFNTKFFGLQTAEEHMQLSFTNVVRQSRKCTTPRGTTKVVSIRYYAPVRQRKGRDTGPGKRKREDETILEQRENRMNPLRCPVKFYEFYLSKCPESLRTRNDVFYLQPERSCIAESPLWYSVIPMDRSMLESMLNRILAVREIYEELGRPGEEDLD

Amino acid sequences for entries named in this document (tags omitted). A change or cut given only in a name is not applied to a line headed by its entry.
UniProt Q6NZQ4: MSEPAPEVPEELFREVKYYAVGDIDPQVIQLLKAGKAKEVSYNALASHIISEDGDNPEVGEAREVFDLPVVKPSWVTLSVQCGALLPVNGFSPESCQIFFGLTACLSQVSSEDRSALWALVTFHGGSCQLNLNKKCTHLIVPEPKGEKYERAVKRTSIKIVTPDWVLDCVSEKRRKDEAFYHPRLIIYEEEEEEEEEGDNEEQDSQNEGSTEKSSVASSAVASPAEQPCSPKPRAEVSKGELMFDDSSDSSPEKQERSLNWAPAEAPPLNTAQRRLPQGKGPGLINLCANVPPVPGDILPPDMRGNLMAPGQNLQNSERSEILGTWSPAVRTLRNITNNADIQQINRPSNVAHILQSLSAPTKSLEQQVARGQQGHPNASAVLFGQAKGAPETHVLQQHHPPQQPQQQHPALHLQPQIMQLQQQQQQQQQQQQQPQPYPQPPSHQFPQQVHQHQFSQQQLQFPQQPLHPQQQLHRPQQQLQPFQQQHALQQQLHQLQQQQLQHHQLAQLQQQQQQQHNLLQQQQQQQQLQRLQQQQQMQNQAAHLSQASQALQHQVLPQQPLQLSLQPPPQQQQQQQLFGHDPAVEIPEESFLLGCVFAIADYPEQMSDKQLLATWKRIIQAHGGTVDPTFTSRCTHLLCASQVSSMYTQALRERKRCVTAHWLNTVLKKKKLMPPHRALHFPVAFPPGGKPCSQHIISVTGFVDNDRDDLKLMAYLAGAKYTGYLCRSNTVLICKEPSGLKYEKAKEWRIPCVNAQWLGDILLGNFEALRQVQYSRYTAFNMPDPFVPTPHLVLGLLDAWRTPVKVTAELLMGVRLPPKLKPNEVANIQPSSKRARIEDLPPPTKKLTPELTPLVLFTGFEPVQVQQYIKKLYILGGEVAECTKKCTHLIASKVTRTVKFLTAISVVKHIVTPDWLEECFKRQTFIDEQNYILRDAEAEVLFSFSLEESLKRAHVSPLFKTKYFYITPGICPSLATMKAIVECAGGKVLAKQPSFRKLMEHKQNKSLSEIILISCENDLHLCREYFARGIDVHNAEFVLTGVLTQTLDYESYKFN
UniProt A0A140LI88: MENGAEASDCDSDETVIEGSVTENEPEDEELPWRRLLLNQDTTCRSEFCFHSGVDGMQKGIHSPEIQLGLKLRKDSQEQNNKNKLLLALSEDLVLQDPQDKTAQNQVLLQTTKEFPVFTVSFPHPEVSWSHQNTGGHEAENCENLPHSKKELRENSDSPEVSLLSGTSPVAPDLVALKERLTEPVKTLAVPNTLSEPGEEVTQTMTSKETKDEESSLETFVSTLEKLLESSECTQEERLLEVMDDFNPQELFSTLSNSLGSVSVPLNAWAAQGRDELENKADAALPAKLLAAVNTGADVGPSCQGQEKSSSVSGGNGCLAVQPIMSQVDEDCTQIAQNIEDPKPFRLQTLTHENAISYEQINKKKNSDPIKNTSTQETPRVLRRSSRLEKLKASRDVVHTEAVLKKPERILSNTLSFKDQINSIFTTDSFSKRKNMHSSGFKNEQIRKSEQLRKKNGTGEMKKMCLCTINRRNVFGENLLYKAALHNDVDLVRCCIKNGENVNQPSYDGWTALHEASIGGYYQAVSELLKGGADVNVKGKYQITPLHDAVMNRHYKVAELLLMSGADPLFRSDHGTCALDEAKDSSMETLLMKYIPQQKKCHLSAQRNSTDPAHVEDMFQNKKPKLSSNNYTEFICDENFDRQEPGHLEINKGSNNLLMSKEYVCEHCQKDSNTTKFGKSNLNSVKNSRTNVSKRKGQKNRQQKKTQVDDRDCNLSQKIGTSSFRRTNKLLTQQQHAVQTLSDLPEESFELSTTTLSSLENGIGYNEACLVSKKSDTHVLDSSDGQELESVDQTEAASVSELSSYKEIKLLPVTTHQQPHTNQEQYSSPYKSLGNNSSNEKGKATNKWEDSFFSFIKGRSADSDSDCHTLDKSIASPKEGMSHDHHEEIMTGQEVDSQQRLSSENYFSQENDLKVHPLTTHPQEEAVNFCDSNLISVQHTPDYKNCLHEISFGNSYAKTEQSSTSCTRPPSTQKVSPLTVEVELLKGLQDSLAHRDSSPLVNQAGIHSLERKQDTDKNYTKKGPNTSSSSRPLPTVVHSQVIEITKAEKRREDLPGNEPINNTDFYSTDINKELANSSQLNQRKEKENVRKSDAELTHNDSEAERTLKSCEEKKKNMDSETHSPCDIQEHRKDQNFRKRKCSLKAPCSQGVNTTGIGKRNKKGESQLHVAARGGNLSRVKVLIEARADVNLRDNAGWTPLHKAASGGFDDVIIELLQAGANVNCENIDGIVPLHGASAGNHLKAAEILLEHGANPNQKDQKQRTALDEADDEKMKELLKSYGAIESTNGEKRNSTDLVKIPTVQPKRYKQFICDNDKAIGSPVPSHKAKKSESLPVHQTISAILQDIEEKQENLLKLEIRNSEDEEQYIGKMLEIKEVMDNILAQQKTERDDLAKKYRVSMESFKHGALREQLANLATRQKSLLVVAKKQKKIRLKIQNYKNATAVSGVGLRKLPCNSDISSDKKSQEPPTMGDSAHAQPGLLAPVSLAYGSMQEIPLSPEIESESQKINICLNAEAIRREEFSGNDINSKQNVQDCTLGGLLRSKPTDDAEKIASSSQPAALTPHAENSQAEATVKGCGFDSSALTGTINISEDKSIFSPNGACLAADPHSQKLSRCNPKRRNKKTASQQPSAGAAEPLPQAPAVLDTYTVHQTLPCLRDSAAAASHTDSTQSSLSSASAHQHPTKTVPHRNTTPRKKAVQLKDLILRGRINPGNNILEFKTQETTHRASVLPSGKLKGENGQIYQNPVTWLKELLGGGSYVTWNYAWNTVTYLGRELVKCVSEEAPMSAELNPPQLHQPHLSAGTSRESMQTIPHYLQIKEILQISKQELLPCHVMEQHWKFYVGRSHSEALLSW

[1] = target: T2, REC114N (N-terminal part of REC114) (mouse) (UniProt Q9CWH4)
T2 sequence: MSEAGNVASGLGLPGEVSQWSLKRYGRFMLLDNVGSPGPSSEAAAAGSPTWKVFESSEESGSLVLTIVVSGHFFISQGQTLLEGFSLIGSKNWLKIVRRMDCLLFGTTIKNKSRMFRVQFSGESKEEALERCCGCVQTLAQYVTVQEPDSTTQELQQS

PTIP (mouse) = PTIP (mouse) (UniProt Q6NZQ4)
MEI1 (mouse) = target: T3, MEI1 (mouse) (UniProt Q9D4I2)
T3 sequence: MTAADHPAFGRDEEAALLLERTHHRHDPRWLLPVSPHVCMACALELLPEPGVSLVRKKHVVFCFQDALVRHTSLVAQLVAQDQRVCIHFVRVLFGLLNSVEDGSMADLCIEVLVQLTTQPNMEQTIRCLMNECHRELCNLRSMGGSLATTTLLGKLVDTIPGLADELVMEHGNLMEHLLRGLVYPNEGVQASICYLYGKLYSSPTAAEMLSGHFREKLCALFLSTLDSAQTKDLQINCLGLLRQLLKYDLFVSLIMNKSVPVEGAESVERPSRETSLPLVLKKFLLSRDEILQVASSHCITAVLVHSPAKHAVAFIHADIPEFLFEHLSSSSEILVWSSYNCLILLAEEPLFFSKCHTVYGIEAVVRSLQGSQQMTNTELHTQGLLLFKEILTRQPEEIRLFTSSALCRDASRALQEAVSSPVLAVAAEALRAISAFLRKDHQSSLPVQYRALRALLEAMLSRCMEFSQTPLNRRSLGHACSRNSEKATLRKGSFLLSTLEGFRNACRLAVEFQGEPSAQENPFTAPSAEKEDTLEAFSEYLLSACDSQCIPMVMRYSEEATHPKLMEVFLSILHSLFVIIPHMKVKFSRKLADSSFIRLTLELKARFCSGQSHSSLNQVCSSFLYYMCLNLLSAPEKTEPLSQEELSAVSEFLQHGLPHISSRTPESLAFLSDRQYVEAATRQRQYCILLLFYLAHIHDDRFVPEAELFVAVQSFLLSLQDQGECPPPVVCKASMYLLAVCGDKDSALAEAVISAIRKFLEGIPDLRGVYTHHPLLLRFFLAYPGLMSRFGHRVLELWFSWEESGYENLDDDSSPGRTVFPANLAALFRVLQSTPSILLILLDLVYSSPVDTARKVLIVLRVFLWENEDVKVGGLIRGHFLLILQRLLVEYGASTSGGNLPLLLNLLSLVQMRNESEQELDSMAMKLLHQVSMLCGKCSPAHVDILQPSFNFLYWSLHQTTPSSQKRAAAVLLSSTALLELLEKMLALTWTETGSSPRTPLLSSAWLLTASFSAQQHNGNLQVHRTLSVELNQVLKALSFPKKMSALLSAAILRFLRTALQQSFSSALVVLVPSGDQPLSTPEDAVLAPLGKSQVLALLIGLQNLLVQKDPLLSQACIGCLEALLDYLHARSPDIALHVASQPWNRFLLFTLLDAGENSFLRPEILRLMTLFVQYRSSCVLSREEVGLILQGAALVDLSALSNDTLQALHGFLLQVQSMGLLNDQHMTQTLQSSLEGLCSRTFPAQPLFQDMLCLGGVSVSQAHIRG

“ANKRD31-ΔC (otherwise full-length ANKRD31 with C-terminal frameshift truncation) (from UniProt A0A140LI88)” was tested, and the binding (ZMYM3 (mouse)) was “binds”, the binding [1] was “no binding” and the binding (PTIP (mouse)) was “binds”. The binding (MEI1 (mouse)) was “binds”.
